Source: article PMC11876641, “Ephrin A1 functions as a ligand of EGFR to promote EMT and metastasis in gastric cancer” (The EMBO Journal, 2025)
No constants are given. Whether binding was seen depends on the method and setting. Binding seen in cells or lysates may run through a third protein. A result given as binding can be weak or reduced; the word gives no strength.

The chains behind the UniProt entries cited, without tags or fusion partners. Residues count along the entry.
UniProt P20827, residues 19-182: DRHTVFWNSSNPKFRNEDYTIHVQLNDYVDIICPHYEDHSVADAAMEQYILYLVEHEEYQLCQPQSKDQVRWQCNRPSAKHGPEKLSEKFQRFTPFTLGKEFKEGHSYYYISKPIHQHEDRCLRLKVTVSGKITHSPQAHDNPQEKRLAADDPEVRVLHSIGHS

What was measured:
[1] = biological target: EGFR-△ECD-Myc (human) (UniProt P00533); assay: co-IP; MKN45 cells transfected with EGFR-Myc wild type or deletion constructs; anti-Myc beads; western blot for Ephrin A1
[2] = biological target: EGFR-△D1 + 3-Myc (human) (UniProt P00533); assay: as above

Q: What does the source list for “Ephrin A1 (in MKN45 cells) (from UniProt P20827 19-182) (ligand)”?
A: binding [1]: binds weakly; binding [2]: binds weakly
